Binding data for two molecules are collected here from paper PMC4299600.

No constants are given. Whether binding was seen depends on the method and setting. Binding seen in cells or lysates may run through a third protein. Some entries that bind do so weakly or less than the wild type. Where a sequence is shown, tags or fusion partners need not be part of it.

For experiment [1], the target named is T1, GST-tagged Cka2 (CK2 subunit Cka2) (S. cerevisiae) (UniProt P19454).
T1 sequence: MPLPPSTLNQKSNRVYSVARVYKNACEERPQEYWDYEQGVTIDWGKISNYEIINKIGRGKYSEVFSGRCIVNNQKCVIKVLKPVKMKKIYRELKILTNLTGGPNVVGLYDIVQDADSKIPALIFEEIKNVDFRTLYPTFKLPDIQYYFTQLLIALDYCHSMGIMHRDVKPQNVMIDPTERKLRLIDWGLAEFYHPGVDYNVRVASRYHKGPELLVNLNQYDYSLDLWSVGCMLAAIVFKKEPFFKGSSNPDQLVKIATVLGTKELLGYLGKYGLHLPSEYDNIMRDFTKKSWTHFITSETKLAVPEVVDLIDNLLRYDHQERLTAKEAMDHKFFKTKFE
The experiment is described as follows: co-IP; GAL-inducible Cka2-GST or Cka1-GST expressed in BY4741 cka2Δ or cka1Δ cells; cells subjected to osmotic stress (0.7 N NaCl) for the indicated length of time; lysates incubated with glutathione Sepharose beads at 4°C overnight in 1x PBS, 1 mM DTT, 0.1% NP-40, 10% glycerol, protease inhibitors; immunoblot for Cdc14 and total or phospho-Hog1. (In western blotting, separated proteins are transferred to a membrane and probed.)

Experiment [2] addresses T2, GST-tagged Cka1 (CK2 subunit Cka1) (S. cerevisiae) (UniProt P15790).
T2 sequence: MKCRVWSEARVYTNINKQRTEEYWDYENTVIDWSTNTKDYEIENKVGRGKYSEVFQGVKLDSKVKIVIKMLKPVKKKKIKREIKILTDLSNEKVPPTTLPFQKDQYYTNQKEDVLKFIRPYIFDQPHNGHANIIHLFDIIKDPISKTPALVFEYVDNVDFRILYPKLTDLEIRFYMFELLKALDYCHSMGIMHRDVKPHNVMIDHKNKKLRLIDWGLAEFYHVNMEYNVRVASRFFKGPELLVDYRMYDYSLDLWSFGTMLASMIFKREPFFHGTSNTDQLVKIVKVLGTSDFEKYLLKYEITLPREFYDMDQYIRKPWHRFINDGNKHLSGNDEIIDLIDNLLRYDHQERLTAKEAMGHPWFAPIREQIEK
The description is as above.

B1: Hog1 kinase (enzyme, UniProt P32485 1-435)
chain: MTTNEEFIRTQIFGTVFEITNRYNDLNPVGMGAFGLVCSATDTLTSQPVAIKKIMKPFSTAVLAKRTYRELKLLKHLRHENLICLQDIFLSPLEDIYFVTELQGTDLHRLLQTRPLEKQFVQYFLYQILRGLKYVHSAGVIHRDLKPSNILINENCDLKICDFGLARIQDPQMTGYVSTRYYRAPEIMLTWQKYDVEVDIWSAGCIFAEMIEGKPLFPGKDHVHQFSIITDLLGSPPKDVINTICSENTLKFVTSLPHRDPIPFSERFKTVEPDAVDLLEKMLVFDPKKRITAADALAHPYSAPYHDPTDEPVADAKFDWHFNDADLPVDTWRVMMYSEILDFHKIGGSDGQIDISATFDDQVAAATAAAAQAQAQAQAQVQLNMAAHSHNGAGTTGNDHSDIAGGNKVSDHVAANDTITDYGNQAIQYANEFQQ
For B1, the binding entry in experiment [1] and in experiment [2] was “binds” in each case.

B2: Cdc14 phosphatase (enzyme, UniProt Q00684 1-551)
chain: MRRSVYLDNTIEFLRGRVYLGAYDYTPEDTDELVFFTVEDAIFYNSFHLDFGPMNIGHLYRFAVIFHEILNDPENANKAVVFYSSASTRQRANAACMLCCYMILVQAWTPHQVLQPLAQVDPPFMPFRDAGYSNADFEITIQDVVYGVWRAKEKGLIDLHSFNLESYEKYEHVEFGDFNVLTPDFIAFASPQEDHPKGYLATKSSHLNQPFKSVLNFFANNNVQLVVRLNSHLYNKKHFEDIGIQHLDLIFEDGTCPDLSIVKNFVGAAETIIKRGGKIAVHCKAGLGRTGCLIGAHLIYTYGFTANECIGFLRFIRPGMVVGPQQHWLYLHQNDFREWKYTTRISLKPSEAIGGLYPLISLEEYRLQKKKLKDDKRVAQNNIEGELRDLTMTPPSNGHGALSARNSSQPSTANNGSNSFKSSAVPQTSPGQPRKGQNGSNTIEDINNNRNPTSHANRKVVIESNNSDDESMQDTNGTSNHYPKVSRKKNDISSASSSRMEDNEPSATNINNAADDTILRQLLPKNRRVTSGRRTTSAAGGIRKISGSIKK
Consider B2, for which, in experiment [1], the binding result was “binds”.
